Measurements from “University of Dundee, Small-Polar-MMV Screening Library” (2021), ChEMBL document CHEMBL3988442.

Amino acid sequences for entries named in this document (tags omitted). Residues count along the entry.
UniProt Q8IDJ8, 1-583: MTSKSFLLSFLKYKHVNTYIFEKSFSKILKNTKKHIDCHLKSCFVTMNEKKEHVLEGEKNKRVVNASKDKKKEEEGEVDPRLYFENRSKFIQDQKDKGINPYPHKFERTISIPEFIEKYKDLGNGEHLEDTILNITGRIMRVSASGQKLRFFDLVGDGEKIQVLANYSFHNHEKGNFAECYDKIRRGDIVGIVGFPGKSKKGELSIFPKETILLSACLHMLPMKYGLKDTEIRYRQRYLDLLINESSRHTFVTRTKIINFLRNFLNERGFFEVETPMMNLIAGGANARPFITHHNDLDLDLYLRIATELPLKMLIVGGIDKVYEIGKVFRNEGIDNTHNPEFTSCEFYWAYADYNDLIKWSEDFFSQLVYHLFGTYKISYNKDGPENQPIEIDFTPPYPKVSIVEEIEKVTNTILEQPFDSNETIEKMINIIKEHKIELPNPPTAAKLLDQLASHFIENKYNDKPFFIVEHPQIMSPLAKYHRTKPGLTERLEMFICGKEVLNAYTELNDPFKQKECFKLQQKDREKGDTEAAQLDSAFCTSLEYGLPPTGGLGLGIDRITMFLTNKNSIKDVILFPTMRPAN

T. brucei: 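Whole-parasite assay of Trypanosoma brucei over 72 hours; the read-out is not stated. Concentration: 30 µM. Direction is inferred from retests: higher values go with stronger inhibition. Values scatter widely below zero; nearly all retest evidence comes from the higher of the two concentrations used. About 64,000 compounds were tested under these conditions; 1.5% (about 940) showed 50% or more at least once.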
PfKRS1: 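Enzyme assay of the cytosolic lysyl-tRNA synthetase in 384-well plates, read by luminescence. Target: Lysine-tRNA ligase, Plasmodium falciparum 3D7 (UniProt Q8IDJ8). Tested at 30 µM. Higher reads as stronger inhibition, judged from the few compounds that gave an IC50. Of about 69,000 compounds tested this way, about 49 (0.071%) reached 50% or more in at least one test.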

Values are the deposited “Percent Effect”, in %.
The record does not define 0% and 100%; most values in the screen are far below 50% and negative numbers occur (in some assays of this library far below -100).
The compounds are a random part of those screened.
A dash means the value is not listed here; it may have been measured.

* Cc1ccc(C(=O)N2CCc3ncnc(C)c3CC2)cc1F | T. brucei: -47.42%; PfKRS1: -1.214%
* O=S(=O)(NCC1(O)CCOc2ccccc21)c1ccccc1Br (centres unmarked) | T. brucei: 16.58%; PfKRS1: 2.493%
* O=C(NCC1OCCc2cn(CC3CCOCC3)nc21)c1ccsc1.O=C(O)C(F)(F)F (centres unmarked) | T. brucei: -82.86%
* c1ccc(-c2nc(CN3CCn4c(nnc4C4CC4)C3)co2)cc1 | T. brucei: 20.19%; PfKRS1: 3.199%
* CC1c2ncc(COCC3CCOCC3)n2CCN1S(C)(=O)=O (centres unmarked) | PfKRS1: 5.98%
* CN(C)c1ncc2c(n1)CCCC2NC(=O)C1CC1 (centres unmarked) | T. brucei: -42.78%; PfKRS1: 2.215%
* COc1ccccc1OCC(=O)N1CCN(Cc2noc(C)n2)CC1 | T. brucei: 0.08021%; PfKRS1: 3.412%
* O=C(NC1CC1)N1CCc2ccc(=O)n(Cc3ccncc3)c2CC1 | T. brucei: -64.5%; PfKRS1: 1.173%
* Cc1nc(CN2CCN(CC(O)CN3CCOCC3)CC2)oc1C (centres unmarked) | T. brucei: -20.37%; PfKRS1: -4.406%
* COc1cc(CN2CCCC(Nc3cccc(F)c3)C2)cc(Cl)c1O (centres unmarked) | T. brucei: -40.41%; PfKRS1: 1.435%
* CCC(O)CN1CCN(C(=O)c2ccc(N(C)C)nn2)CC1 (centres unmarked) | T. brucei: -7.49%; PfKRS1: -0.8436%
* O=C(NCc1ccco1)Nc1cccc(S(=O)(=O)C(F)F)c1 | PfKRS1: 2.043%
* O=S(=O)(C1CC1)N1CCO[C@H]2[C@H](OCCN3CCCC3)CC[C@@H]21 | PfKRS1: 1.614%
* O=C(Nc1nnc(C(F)F)s1)N[C@H](CCO)c1ccccc1 | T. brucei: -4.373%; PfKRS1: 2.356%
* COc1ccc(CNC(=O)c2cc3c(nc2O)CCC(C)C3)cc1 (centres unmarked) | T. brucei: -9.974%; PfKRS1: -0.09056%
* CS(=O)(=O)CCN1CCC2(CCCN(C3CCOCC3)C2=O)C1 (centres unmarked) | T. brucei: 2.505%; PfKRS1: 2.092%
* COCCCNC(=O)NCc1nc(C)c(C)o1 | T. brucei: -16.8%; PfKRS1: -1.558%
* CC(NC(=O)Cc1cccs1)c1nnc2n1CCCCC2 (centres unmarked) | T. brucei: 7.169%; PfKRS1: 0.04983%
* CC(C)C[C@H](NC(=O)N1CCC(Cc2ccccc2)CC1)C(=O)O | T. brucei: -50.74%; PfKRS1: 1.534%
* COc1ccc(CNCC2CNc3cc(C)nn3C2)cn1 (centres unmarked) | T. brucei: 11.94%; PfKRS1: -0.6091%
* O=C(O)c1cc(S(=O)(=O)Nc2cc(F)cc(F)c2)cc2c1OCCO2 | T. brucei: -14.79%; PfKRS1: 0.2893%
* O=C(NC1CC1)C1CN(Cc2ccc3c(c2)OCCO3)CCN1 (centres unmarked) | PfKRS1: 2.46%
* Cc1nn(C)c2nc(N(CCN(C)C)CC3CCCO3)sc12 (centres unmarked) | T. brucei: -22.79%; PfKRS1: 1.497%
* [H][C@]12CC[C@]([H])(CN(Cc3c(C)noc3C)C1)N(Cc1cccc(C=C)c1)C2 | T. brucei: -50.76%
* O=C(O)C(F)(F)F.O=C(O)C(F)(F)F.c1ccc(CN2CCOCC3(CCN(C4CCOCC4)C3)C2)cc1 (centres unmarked) | T. brucei: -34.62%
* CCOc1ccccc1CNC(=O)N1CCC(n2cncn2)CC1 | T. brucei: -1.611%; PfKRS1: -0.8265%
* O=C(O)C(F)(F)F.[H][C@]12CN(Cc3cccnc3)C(=O)[C@@]1([H])CN(S(=O)(=O)CC)C2 | T. brucei: -49.96%
* CN(Cc1cccnc1)C[C@@H]1OC[C@H]2CN(Cc3ccoc3)CC[C@H]21 | PfKRS1: 4.059%
* CSc1ccccc1C(=O)NCCCN1CCc2ccccc2C1 | T. brucei: 20.75%; PfKRS1: 0.02012%
* CCc1ccc(C(=O)N2CCN(Cc3ccc(F)cc3)CC2)s1 | T. brucei: -15.26%; PfKRS1: 4.005%
* CCC(CNC(=O)c1ccc(=O)[nH]n1)N1CCc2ccccc2C1 (centres unmarked) | T. brucei: 3.797%; PfKRS1: 1.92%
* O=C(CCn1ccnc1)N1CCC(c2nnc(-c3ccccn3)o2)CC1 | T. brucei: -16.5%; PfKRS1: 1.613%
* Cc1cc(C)c(S(N)(=O)=O)cc1C(=O)NCC1Cc2ccccc2O1 (centres unmarked) | T. brucei: -50.06%; PfKRS1: 0.6901%
* COc1ccccc1C(C)NC(=O)N1CCN(Cc2ccc(Br)s2)CC1 (centres unmarked) | T. brucei: -23.08%; PfKRS1: -3.693%
* COC(=O)c1ccc(CNC(=O)Cc2csc(C(C)=O)c2)cc1 | T. brucei: -21.53%; PfKRS1: 0.7812%
* CS(=O)(=O)c1cccc(S(=O)(=O)NC(=O)c2cscn2)c1 | T. brucei: -6.036%; PfKRS1: 4.702%
* CC1COCCN1C(=O)c1ccc(=O)n(CCOc2ccccc2)n1 (centres unmarked) | T. brucei: -24.85%; PfKRS1: 2.518%
* CC(NCc1cccc(COC2CCCC2)c1)c1cnn(C)c1 (centres unmarked) | T. brucei: -18.04%; PfKRS1: 1.132%
* [H][C@@]12COC[C@]1(COCc1cccnc1)CN(C(=O)c1cnn(C)c1)C2 | T. brucei: -10.55%
* O=C(NCc1nc(NC2CCCC2)c2cc(Cl)ccc2n1)c1cscn1 | T. brucei: -11.1%; PfKRS1: -1.298%

The last 3 entries again:

| compound | T. brucei | PfKRS1 |
|---|---|---|
| `CC(NCc1cccc(COC2CCCC2)c1)c1cnn(C)c1` (centres unmarked) | -18.04% | 1.132% |
| `[H][C@@]12COC[C@]1(COCc1cccnc1)CN(C(=O)c1cnn(C)c1)C2` | -10.55% | - |
| `O=C(NCc1nc(NC2CCCC2)c2cc(Cl)ccc2n1)c1cscn1` | -11.1% | -1.298% |